Some compounds share one wording; it may come from a single statement.
Details: heat map and hierarchical analysis of auto-scaled CHIC18, CHIIAM and HSA data; classes low, medium, high

Molecule	bioaccumulation potency (group from hierarchical analysis)
CCOP(=S)(OCC)SCn1nnc2ccccc2c1=O [Azinphos-ethyl]	high bioaccumulation potency
COP(=S)(OC)Oc1ccc([N+](=O)[O-])c(C)c1 [Fenitrothion]	high bioaccumulation potency
CCOP(=S)(OCC)SCCSCC [Disulfoton]	high bioaccumulation potency
COP(=O)(OC)OC(Br)C(Cl)(Cl)Br (stereo not shown) [Naled]	low bioaccumulation potency
CCOP(=S)(OCC)Oc1cnc2ccccc2n1 [Quinalphos]	high bioaccumulation potency
COP(=S)(OC)Oc1ccc([N+](=O)[O-])cc1 [Parathion-methyl]	medium bioaccumulation potency
COP(=S)(OC)Oc1ccc(SC)c(C)c1 [Fenthion]	high bioaccumulation potency
COP(=O)(OC)OC=C(Cl)Cl [Dichlorvos]	low bioaccumulation potency
COP(=S)(OC)SCn1nnc2ccccc2c1=O [Azinphos-methyl]	medium bioaccumulation potency
COP(=S)(OC)SCN1C(=O)c2ccccc2C1=O [Phosmet]	medium bioaccumulation potency
CCOP(=O)(OCC)Oc1ccc([N+](=O)[O-])cc1 [Paraoxon-ethyl]	low bioaccumulation potency
Chlorpyrifos-oxon	low bioaccumulation potency
CCOP(=S)(OCC)Oc1cc(C)nc(C(C)C)n1 [Diazinon]	medium bioaccumulation potency
CCOP(=O)(OCC)OC(=CCl)c1ccc(Cl)cc1Cl [Chlorfenvinphos]	medium bioaccumulation potency
CCOC(=O)N(C)C(=O)CSP(=S)(OCC)OCC [Mecarbam]	medium bioaccumulation potency
CCOP(=S)(OCC)SCSCC [Phorate]	high bioaccumulation potency

— PMC11898958, “Application of Biomimetic Chromatography and QSRR Approach for Characterizing Organophosphate Pesticides” (International Journal of Molecular Sciences, 2025)
